Measurements as given in the supplement of paper PMC10849652.
The other results are listed elsewhere or left out.

Chains of the proteins cited; added tags and fusions are not shown. Lines headed by an entry give the natural chain unless they say otherwise; changes in a name come on top.
UniProt O15047, whole entry, looked up: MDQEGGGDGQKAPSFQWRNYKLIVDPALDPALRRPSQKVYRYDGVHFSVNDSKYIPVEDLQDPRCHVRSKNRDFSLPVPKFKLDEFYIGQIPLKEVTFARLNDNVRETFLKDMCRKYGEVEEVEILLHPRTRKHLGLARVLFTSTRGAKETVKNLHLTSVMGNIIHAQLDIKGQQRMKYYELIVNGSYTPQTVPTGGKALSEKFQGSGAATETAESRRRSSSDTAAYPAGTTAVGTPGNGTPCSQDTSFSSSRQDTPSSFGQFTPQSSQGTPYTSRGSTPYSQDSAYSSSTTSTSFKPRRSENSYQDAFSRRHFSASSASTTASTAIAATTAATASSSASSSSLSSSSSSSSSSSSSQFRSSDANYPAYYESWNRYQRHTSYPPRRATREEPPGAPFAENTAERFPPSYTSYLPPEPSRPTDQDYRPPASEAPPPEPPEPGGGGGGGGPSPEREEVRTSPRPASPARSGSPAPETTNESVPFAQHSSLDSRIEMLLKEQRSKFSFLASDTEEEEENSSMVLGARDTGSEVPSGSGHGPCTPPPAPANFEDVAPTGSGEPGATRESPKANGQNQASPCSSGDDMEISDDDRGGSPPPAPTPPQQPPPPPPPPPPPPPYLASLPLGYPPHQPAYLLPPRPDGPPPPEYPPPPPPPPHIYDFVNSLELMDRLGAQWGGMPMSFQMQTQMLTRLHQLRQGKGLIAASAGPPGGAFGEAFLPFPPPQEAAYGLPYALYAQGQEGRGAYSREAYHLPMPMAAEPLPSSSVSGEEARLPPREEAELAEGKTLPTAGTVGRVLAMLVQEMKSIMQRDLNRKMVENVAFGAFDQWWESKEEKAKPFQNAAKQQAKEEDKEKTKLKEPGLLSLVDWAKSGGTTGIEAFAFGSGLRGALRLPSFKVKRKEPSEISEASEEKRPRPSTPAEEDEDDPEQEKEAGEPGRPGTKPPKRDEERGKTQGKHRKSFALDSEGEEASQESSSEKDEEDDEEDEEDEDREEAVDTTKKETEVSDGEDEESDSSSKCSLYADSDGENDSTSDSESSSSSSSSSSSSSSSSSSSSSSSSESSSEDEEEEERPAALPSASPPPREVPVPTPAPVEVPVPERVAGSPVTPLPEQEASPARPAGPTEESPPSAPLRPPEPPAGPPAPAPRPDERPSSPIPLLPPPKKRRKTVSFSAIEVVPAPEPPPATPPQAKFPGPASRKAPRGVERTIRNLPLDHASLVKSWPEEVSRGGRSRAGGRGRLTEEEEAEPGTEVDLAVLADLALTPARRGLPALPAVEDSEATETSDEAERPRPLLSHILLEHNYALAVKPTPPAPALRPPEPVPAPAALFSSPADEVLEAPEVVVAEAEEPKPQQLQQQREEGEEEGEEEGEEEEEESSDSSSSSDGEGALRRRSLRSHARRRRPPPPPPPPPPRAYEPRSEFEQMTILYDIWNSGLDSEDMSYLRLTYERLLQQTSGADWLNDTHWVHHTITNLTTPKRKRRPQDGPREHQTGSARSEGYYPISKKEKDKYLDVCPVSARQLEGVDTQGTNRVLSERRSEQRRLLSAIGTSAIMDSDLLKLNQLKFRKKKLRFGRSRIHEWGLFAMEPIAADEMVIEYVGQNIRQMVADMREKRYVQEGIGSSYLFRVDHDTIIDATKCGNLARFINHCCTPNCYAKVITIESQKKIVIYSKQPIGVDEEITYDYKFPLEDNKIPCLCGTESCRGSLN
UniProt Q13435: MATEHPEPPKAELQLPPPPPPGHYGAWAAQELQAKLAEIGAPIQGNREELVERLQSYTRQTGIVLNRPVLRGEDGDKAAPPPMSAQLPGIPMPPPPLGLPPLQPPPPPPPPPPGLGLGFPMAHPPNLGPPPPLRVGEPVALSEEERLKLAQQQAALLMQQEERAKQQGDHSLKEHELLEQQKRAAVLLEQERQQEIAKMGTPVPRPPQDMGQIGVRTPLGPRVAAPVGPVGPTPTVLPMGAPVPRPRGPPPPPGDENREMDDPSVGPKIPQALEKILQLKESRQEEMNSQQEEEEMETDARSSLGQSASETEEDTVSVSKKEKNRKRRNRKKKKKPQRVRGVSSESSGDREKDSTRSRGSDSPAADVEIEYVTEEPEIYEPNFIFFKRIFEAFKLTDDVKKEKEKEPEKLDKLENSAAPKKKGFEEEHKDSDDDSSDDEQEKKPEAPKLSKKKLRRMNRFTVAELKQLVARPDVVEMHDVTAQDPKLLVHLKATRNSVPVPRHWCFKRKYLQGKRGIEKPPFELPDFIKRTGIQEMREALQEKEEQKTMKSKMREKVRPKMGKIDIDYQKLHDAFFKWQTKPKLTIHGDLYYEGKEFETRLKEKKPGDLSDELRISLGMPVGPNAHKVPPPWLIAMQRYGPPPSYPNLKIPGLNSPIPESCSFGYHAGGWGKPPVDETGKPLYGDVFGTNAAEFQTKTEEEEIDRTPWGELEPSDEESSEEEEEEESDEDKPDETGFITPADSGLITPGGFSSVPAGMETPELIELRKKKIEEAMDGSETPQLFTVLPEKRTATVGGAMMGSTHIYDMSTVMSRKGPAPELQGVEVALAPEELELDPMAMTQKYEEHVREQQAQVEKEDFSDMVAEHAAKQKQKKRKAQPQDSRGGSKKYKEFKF
UniProt Q9NR46: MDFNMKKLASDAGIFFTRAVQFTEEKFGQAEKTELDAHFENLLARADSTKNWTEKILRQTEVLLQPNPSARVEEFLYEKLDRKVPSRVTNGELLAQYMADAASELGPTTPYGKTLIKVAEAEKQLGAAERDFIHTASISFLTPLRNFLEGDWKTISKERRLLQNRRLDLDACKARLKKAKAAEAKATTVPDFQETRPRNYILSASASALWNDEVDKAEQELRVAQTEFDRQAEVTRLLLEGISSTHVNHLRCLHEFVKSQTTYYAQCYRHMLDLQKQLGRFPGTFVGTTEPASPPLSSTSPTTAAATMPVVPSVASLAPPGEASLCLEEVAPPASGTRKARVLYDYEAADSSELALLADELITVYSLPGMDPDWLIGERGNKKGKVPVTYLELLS
UniProt Q7L8J4: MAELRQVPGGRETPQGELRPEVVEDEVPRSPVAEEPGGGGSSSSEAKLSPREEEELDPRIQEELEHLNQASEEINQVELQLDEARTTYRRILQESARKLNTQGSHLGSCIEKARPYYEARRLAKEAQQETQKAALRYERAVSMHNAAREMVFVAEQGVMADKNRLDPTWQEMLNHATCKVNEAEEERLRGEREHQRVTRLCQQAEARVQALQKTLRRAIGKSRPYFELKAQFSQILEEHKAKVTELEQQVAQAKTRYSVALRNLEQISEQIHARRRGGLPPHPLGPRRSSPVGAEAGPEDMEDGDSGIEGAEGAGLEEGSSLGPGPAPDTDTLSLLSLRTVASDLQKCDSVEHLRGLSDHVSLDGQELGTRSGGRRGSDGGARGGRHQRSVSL
UniProt P31947: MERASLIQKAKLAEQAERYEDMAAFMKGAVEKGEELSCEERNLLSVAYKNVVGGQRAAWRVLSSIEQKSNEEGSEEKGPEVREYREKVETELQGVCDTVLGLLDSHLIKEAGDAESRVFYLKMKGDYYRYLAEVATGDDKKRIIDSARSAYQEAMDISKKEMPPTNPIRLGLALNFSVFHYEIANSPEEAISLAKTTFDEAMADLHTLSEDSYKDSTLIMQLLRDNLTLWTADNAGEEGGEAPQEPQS
UniProt P41440: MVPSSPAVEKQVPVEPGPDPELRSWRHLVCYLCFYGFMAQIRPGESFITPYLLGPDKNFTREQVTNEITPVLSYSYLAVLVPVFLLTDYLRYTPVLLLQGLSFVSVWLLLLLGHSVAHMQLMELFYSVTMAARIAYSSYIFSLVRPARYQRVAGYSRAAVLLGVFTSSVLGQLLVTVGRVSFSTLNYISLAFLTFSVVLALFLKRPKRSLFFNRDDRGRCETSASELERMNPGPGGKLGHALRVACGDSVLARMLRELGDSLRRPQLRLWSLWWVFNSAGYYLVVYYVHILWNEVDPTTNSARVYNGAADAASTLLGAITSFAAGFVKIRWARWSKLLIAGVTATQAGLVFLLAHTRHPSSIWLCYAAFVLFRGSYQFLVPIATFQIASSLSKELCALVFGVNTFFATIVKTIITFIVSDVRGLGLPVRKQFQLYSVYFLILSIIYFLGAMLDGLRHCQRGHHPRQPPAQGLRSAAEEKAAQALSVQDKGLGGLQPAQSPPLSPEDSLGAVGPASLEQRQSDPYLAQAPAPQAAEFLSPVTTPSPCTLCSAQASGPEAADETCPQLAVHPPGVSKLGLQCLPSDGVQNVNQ
UniProt Q9H299: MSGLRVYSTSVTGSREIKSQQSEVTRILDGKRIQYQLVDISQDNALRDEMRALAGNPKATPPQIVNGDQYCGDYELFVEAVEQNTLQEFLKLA
UniProt O75368: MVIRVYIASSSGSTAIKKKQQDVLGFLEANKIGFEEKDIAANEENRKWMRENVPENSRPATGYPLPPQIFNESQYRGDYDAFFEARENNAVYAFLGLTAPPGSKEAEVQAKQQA
UniProt Q8IXJ6: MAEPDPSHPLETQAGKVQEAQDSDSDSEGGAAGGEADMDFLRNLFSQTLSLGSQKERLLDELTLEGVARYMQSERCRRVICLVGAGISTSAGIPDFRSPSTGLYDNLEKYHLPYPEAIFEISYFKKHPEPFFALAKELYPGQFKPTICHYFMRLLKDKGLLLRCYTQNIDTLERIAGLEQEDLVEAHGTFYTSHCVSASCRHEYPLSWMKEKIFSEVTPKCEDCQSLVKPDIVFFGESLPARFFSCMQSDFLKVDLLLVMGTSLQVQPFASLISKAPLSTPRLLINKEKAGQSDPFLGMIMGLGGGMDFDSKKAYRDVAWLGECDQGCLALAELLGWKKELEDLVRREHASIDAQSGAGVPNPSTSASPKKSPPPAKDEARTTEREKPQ
UniProt Q6PI26: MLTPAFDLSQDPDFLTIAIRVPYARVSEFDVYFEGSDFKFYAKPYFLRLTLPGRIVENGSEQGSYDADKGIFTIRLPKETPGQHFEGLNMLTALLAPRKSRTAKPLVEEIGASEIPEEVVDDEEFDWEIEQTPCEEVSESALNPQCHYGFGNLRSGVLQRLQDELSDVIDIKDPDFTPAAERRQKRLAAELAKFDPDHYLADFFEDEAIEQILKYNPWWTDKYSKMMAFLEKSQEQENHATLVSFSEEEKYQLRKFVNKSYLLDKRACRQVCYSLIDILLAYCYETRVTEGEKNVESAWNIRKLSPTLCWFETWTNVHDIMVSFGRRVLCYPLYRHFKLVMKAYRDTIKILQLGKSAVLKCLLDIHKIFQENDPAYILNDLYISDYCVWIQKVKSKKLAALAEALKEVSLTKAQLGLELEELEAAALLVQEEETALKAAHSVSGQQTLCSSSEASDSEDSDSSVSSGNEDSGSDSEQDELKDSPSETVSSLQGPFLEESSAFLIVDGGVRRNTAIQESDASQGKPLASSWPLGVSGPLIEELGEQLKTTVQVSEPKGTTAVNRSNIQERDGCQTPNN
UniProt Q9BRV8: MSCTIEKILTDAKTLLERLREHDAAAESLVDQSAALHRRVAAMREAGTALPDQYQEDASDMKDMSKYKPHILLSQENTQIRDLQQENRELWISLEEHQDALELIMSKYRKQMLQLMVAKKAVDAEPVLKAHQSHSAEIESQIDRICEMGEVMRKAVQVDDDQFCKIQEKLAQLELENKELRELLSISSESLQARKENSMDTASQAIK
UniProt Q9Y3B4: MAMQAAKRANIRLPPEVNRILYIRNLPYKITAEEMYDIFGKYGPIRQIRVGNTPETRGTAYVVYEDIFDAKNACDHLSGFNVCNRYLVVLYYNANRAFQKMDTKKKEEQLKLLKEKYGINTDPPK
UniProt Q15637: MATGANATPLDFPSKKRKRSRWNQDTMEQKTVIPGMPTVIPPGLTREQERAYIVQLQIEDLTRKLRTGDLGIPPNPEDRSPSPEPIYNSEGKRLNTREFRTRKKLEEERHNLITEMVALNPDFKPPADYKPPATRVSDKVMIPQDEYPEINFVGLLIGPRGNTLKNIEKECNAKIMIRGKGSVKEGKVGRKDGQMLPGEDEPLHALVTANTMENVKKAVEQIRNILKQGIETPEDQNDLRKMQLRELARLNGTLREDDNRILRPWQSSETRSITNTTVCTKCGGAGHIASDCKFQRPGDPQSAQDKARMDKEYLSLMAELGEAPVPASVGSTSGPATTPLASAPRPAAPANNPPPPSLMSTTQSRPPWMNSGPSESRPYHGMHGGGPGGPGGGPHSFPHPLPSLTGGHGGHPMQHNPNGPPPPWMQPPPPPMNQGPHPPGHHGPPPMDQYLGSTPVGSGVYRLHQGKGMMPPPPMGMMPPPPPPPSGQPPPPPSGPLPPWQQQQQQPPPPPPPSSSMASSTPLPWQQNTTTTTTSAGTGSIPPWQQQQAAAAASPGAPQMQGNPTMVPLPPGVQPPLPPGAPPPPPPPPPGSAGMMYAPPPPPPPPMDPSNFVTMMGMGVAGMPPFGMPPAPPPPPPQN

Tests used:
Experiment in all cases: log2 fold change, soluble protein after heating vs DMSO (PISA); higher = thermal stabilisation; K562 lysate, 10 uM; active = over 0.2 and 3.5 SD of the protein, either way, in both replicates (recomputed)
ibrutinib = compound: C=CC(=O)N1CCC[C@@H](n2nc(-c3ccc(Oc4ccccc4)cc3)c3c(N)ncnc32)C1 [ibrutinib]
In short: (§1)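 Log-two fold change in thermal stability relative to solvent controls is reported from duplicates. For each sample, crude K562 extract from dounce-homogenised pellets in PBS pH 7.4 with 1 mM MgCl2, at 1 mg/mL protein, was treated with 10 μM compound for 30 min. Aliquots heated for 3 min across 48°C-58°C were pooled, brought to 0.5% NP-40 at 4°C and cleared at 21,000xg for 90 min. The supernatant was quantified by TMTpro 16plex LC-MS/MS with channel sums equalised.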

[1] = compound: CC(=O)c1cnc2ccc(-c3cc(Cl)c(O)c(Cl)c3)nc2c1N[C@H]1CC[C@H](CN(C)C)CC1
In short: as §1

ralimetinib = compound: CC(C)(C)Cn1c(N)nc2ccc(-c3[nH]c(C(C)(C)C)nc3-c3ccc(F)cc3)nc21 [ralimetinib]
In short: as §1

[2] = compound: CC(C)(O)CC(=O)NCCn1ccc2ncnc(Nc3ccc(Oc4cccc(C(F)(F)F)c4)c(Cl)c3)c21
In short: as §1

[3] = compound: CC(C)C1=C2N=C(C=C(N2N=C1)NCC3=CC=CC=C3)NCCCCCCN
In short: as §1

[4] = compound: CC1=C(C(CC(=O)N1)C2=CC=C(C=C2)C(F)(F)F)C(=O)NC3=C(C=C4C(=C3)C=NN4)F
In short: as §1

[5] = compound: CC1=C(C2=C(C=C1)C(=O)C3=CC=CC=C3N2CCCN)C
In short: as §1

[6] = compound: CC1=C(C=C(C=C1)NC(=O)C2=CC(=CC=C2)C(C)(C)C#N)NC3=CC4=C(C=C3)N=CN(C4=O)C
In short: as §1

[7] = compound: CC1=C(C=C(C=C1)NC(=O)C2=CC(=CC=C2)N(C)C)NC(=O)C3=CC=C(C=C3)O
In short: as §1

[8] = compound: CC1=CC=C(C=C1)SC2=C3C=C(SC3=CN=C2)C(=O)N
In short: as §1

Measured: log2 fold change

SLC16A1 (UniProt P53985)
inactive: ibrutinib -0.023 | [1] 0.002 | ralimetinib 0.015 | [2] 0.015 | [3] 0.003 | [4] -0.039 | [5] -0.03 | [6] 0.042 | [7] 0 | [8] -0.006

SETD1A (UniProt O15047)
inactive: ibrutinib 0.034 | [1] 0.042 | ralimetinib 0.006 | [2] -0.036 | [3] 0.011 | [4] 0.013 | [5] -0.051 | [6] -0.019 | [7] 0.029 | [8] -0.017

SF3B3 (UniProt Q15393)
inactive: ibrutinib 0 | [1] 0.007 | ralimetinib 0.001 | [2] -0.024 | [3] -0.011 | [4] 0.003 | [5] -0.023 | [6] 0.041 | [7] -0.011 | [8] 0.001

SH2D2A isoform 2 (UniProt Q9NP31)
inactive: ibrutinib -0.046 | [1] -0.018 | ralimetinib -0.12 | [2] 0.044 | [3] 0.103 | [4] -0.144 | [5] -0.125 | [6] 0.003 | [7] 0.05 | [8] 0.139

SHFL (UniProt Q9NUL5)
inactive: ibrutinib 0.103 | [1] -0.055 | ralimetinib -0.071 | [2] -0.066 | [3] -0.042 | [4] 0.104 | [5] 0.016 | [6] 0.071 | [7] 0 | [8] -0.055

SERPINB1 (UniProt P30740)
inactive: ibrutinib 0.015 | [1] -0.015 | ralimetinib -0.013 | [2] -0.031 | [3] -0.007 | [4] -0.014 | [5] 0.015 | [6] -0.008 | [7] -0.013 | [8] 0.007

SF3B2 (UniProt Q13435)
inactive: ibrutinib -0.001 | [1] 0.01 | ralimetinib 0 | [2] -0.025 | [3] 0.006 | [4] -0.001 | [5] -0.046 | [6] -0.006 | [7] -0.001 | [8] 0.006

SH3GLB2 (UniProt Q9NR46)
inactive: ibrutinib 0.011 | [1] 0.033 | ralimetinib 0.057 | [2] 0.065 | [3] 0.02 | [4] -0.001 | [5] 0.02 | [6] -0.04 | [7] -0.016 | [8] -0.008

SERPINB5 (UniProt P36952)
inactive: ibrutinib -0.024 | [1] -0.251 | ralimetinib -0.354 | [2] 0.345 | [3] 0.107 | [4] 1 | [5] 0.147 | [6] -0.075 | [7] 0.026 | [8] -0.044

SGPL1 (UniProt O95470)
inactive: ibrutinib 0.034 | [1] 0.046 | ralimetinib 0.048 | [2] -0.029 | [3] -0.051 | [4] -0.003 | [5] -0.121 | [6] -0.003 | [7] 0.033 | [8] 0.038

SH3GLB1 isoform 2 (UniProt Q9Y371)
inactive: ibrutinib 0.049 | [1] 0.009 | ralimetinib 0.016 | [2] 0.028 | [3] 0.024 | [4] 0.047 | [5] 0.008 | [6] -0.024 | [7] -0.002 | [8] -0.017

SH3BP5L (UniProt Q7L8J4)
inactive: ibrutinib 0.007 | [1] 0.013 | ralimetinib -0.024 | [2] -0.035 | [3] 0.032 | [4] 0.009 | [5] -0.02 | [6] 0.021 | [7] -0.017 | [8] -0.045

SF3A2 (UniProt Q15428)
inactive: ibrutinib 0.001 | [1] 0.005 | ralimetinib 0.022 | [2] 0 | [3] -0.002 | [4] -0.017 | [5] 0.03 | [6] -0.022 | [7] -0.011 | [8] 0.012

SFN (UniProt P31947)
inactive: ibrutinib 0.015 | [1] 0.01 | ralimetinib -0.002 | [2] 0.035 | [3] 0.016 | [4] 0.045 | [5] 0.031 | [6] -0.036 | [7] -0.004 | [8] -0.021

SLC19A1 (UniProt P41440)
inactive: ibrutinib 0.049 | [1] 0.013 | ralimetinib -0.004 | [2] -0.054 | [3] -0.019 | [4] 0.019 | [5] -0.044 | [6] 0.009 | [7] 0.004 | [8] -0.003

SH3BGRL3 (UniProt Q9H299)
inactive: ibrutinib 0.059 | [1] -0.026 | ralimetinib -0.013 | [2] -0.032 | [3] 0.005 | [4] -0.013 | [5] 0.003 | [6] 0.02 | [7] -0.041 | [8] 0.022

SH3BGRL (UniProt O75368)
inactive: ibrutinib 0.063 | [1] -0.029 | ralimetinib -0.016 | [2] -0.045 | [3] -0.005 | [4] -0.023 | [5] -0.036 | [6] 0.023 | [7] -0.018 | [8] -0.017

SESN2 (UniProt P58004)
inactive: ibrutinib -0.001 | [1] -0.038 | ralimetinib 0.018 | [2] 0.007 | [3] 0.019 | [4] -0.051 | [5] -0.064 | [6] 0.008 | [7] 0.078 | [8] 0.205

SIRT2 (UniProt Q8IXJ6)
inactive: ibrutinib -0.01 | [1] -0.044 | ralimetinib 0.006 | [2] 0.087 | [3] -0.015 | [4] 0.043 | [5] 0 | [6] -0.009 | [7] -0.014 | [8] 0.003

SETD2 (UniProt Q9BYW2)
inactive: ibrutinib 0.045 | [1] 0.002 | ralimetinib 0.021 | [2] -0.018 | [3] 0.054 | [4] 0.039 | [5] -0.036 | [6] 0.018 | [7] -0.001 | [8] 0.013

SGPP1 (UniProt Q9BX95)
inactive: ibrutinib 0.026 | [1] 0.021 | ralimetinib -0.03 | [2] -0.095 | [3] 0.021 | [4] -0.028 | [5] 0.034 | [6] -0.005 | [7] 0.029 | [8] 0.016

SGO2 (UniProt Q562F6)
inactive: ibrutinib -0.03 | ralimetinib 0 | [2] -0.237 | [6] 0.039 | [7] -0.026

SHQ1 (UniProt Q6PI26)
inactive: ibrutinib 0.021 | ralimetinib -0.107 | [2] 0.086 | [3] -0.03 | [4] 0.034 | [5] -0.044 | [6] -0.008 | [7] 0.086

SHMT2 (UniProt P34897)
inactive: ibrutinib 0.026 | [1] 0.016 | ralimetinib 0.006 | [2] -0.012 | [3] -0.019 | [4] -0.019 | [5] -0.018 | [6] 0.016 | [7] -0.023 | [8] 0.008

SIKE1 (UniProt Q9BRV8)
inactive: ibrutinib 0.162 | [1] 0.006 | ralimetinib 0.001 | [2] 0.046 | [3] -0.005 | [4] -0.01 | [5] -0.026 | [6] 0.062 | [7] -0.028 | [8] -0.042

SF3B6 (UniProt Q9Y3B4)
inactive: ibrutinib 0.036 | [1] 0.004 | ralimetinib -0.001 | [2] -0.017 | [3] -0.002 | [4] 0.043 | [5] 0.003 | [6] 0.002 | [7] 0.024 | [8] -0.007

SF1 isoform 6 (UniProt Q15637)
inactive: ibrutinib 0.057 | [1] 0.042 | ralimetinib -0.073 | [2] -0.022 | [3] -0.008 | [4] 0.197 | [5] -0.061 | [7] 0.044 | [8] -0.008

Two entries picked at random from the list so far, as already listed:
SIRT2 (UniProt Q8IXJ6)
inactive: ibrutinib -0.01 | [1] -0.044 | ralimetinib 0.006 | [2] 0.087 | [3] -0.015 | [4] 0.043 | [5] 0 | [6] -0.009 | [7] -0.014 | [8] 0.003

SF3B3 (UniProt Q15393)
inactive: ibrutinib 0 | [1] 0.007 | ralimetinib 0.001 | [2] -0.024 | [3] -0.011 | [4] 0.003 | [5] -0.023 | [6] 0.041 | [7] -0.011 | [8] 0.001
